Results of single-concentration screens

The filed quantity is “Percent Effect” (%). The record does not define 0% and 100%; most values in the screen are far below 50% and negative numbers occur (in some assays of this library far below -100). This is an unselected part of the compounds tested.

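Whole-parasite assay of Trypanosoma brucei over 72 hours; the read-out is not stated. Compounds at 30 µM. Direction is inferred from retests: higher values go with stronger inhibition. Values scatter widely below zero; nearly all retest evidence comes from the higher of the two concentrations used. About 64,000 compounds were tested under these conditions; 1.5% (about 940) showed 50% or more at least once.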

| # | Compound | effect |
|---|---|---|
| 1 | `[H][C@@]12CCN(C(=O)c3cccnc3OC)C[C@@]1([H])O[C@@H](c1noc(C)n1)C2` | -10.37 |
| 2 | `COc1ccccc1CC(=O)N1CCC(NCc2cccnc2)CC1` | -51.59 |
| 3 | `OCCNc1nccc(-c2c[nH]nc2-c2cccnc2)n1` | -27.18 |
| 4 | `CC(C)CCNC(=O)c1ccc(-n2cnc3ccccc3c2=O)cc1` | -25.52 |
| 5 | `CC(=O)NCC1CCN(C(=O)c2c(C)[nH]c3ccc(Cl)cc23)CC1` | 4.898 |
| 6 | `CC(C)C(C#N)N1CCN(Cc2nccn2CC(F)(F)F)CC1` (stereo unspecified) | -5.86 |
| 7 | `Cc1cnn(-c2cncc(C(N)=O)c2)c1` | -17.2 |
| 8 | `CC(O)CN1CCC(CN(C)Cc2ccc(C(N)=O)cc2)CC1` (stereo unspecified) | -28.08 |
| 9 | `Cc1cccc(-c2nc(C)nn2CC(=O)N(C)C2CC2)c1` | 38.46 |
| 10 | `CN(C)CCN1CCCC12CCN(C(=O)c1cnccn1)CC2` | 6.97 |
| 11 | `O=C(c1cccc(CNCC2CNc3ccnn3C2)c1)N1CCCC1` (stereo unspecified) | -10.27 |
| 12 | `O=C(NCCn1ccc(-c2ccccn2)n1)C1CCC1` | 3.669 |
| 13 | `CCc1ccccc1OCCN1C[C@@H](NS(C)(=O)=O)[C@H](C(C)C)C1` | 19.89 |
| 14 | `Cc1noc(C2CCCN(C(=O)c3cc(Cl)cn3C)C2)n1` (stereo unspecified) | -31.65 |
| 15 | `Cn1nc(Br)c2c(=O)n(CCc3ccccc3)cnc21` | -44.81 |
| 16 | `COCCS(=O)(=O)Nc1cc(Cl)ccn1` | -65.51 |
| 17 | `O=C(O)C(F)(F)F.[H][C@@]12OCCN(C(=O)C3CCOCC3)[C@@]1([H])CC[C@H]2Oc1ccccn1` | -15.39 |
| 18 | `CNC(=O)[C@@H](c1ccccc1OC)N1CCC[C@H]1C(=O)NC1CC1.Cl` | 21.54 |
| 19 | `CSCC(=O)N[C@H]1CN(CC2CCOCC2)C[C@@H]1c1ccccc1` | -5.822 |
| 20 | `O=C(NC1CC1)N1CC[C@@H](O)[C@@H]1Cc1ccccc1` | -35.52 |
| 21 | `CN(C)S(=O)(=O)c1ccc(CN2CCCC2c2ccsc2)o1` (stereo unspecified) | -13.07 |
| 22 | `CSCc1noc(CN2CCC3(CC2)CC(=O)N(CC(C)C)C3)n1` | -13.79 |
| 23 | `Cc1ccn(CCC(=O)N2CCOC(c3nc(-c4cccs4)no3)C2)n1` (stereo unspecified) | 8.001 |
| 24 | `Cl.c1cnc(Nc2cncc(C3CCCN3)n2)cn1` (stereo unspecified) | 99.3 |
| 25 | `Cc1ccc2c(c1)c(CNC(=O)C1CC(=O)N(CCN(C)C)C1)nn2C` (stereo unspecified) | -10.64 |
| 26 | `CC(C)c1nc(C2CCCN2C(=O)c2nccnc2N)no1` (stereo unspecified) | 5.96 |
| 27 | `CC(Cn1cccn1)NCC(=O)NCCc1cccs1` (stereo unspecified) | 9.112 |
| 28 | `Cc1cccc(NC(=O)c2csc(NCC(C)C)n2)n1` | -6.262 |
| 29 | `Cc1cnn(CC2CCCN2C(=O)c2sccc2-n2cnnn2)c1` (stereo unspecified) | 3.074 |
| 30 | `CC1(C)CC(N(Cc2ccncc2)Cc2cccnc2)CC(C)(C)N1.O=C(O)CC(O)(CC(=O)O)C(=O)O` | 3.133 |
| 31 | `CCOCC(O)CN1CCN(C(=O)C2CCCC2)CC1` (stereo unspecified) | -20.81 |
| 32 | `[H][C@]12CCC(=O)N(c3ccccc3)[C@@]1([H])CCN2C(=O)N1CCOCC1` | -15.34 |
| 33 | `Cc1nc(N2CCCC2)nc2c1CCN(C(=O)CC1CC1)CC2` | 29.77 |
| 34 | `Nc1nccnc1C(=O)NC1CCN(Cc2ccccc2)C1` (stereo unspecified) | 52.39 |
| 35 | `COc1ccc(C2CCCN2Cc2ccc(S(=O)(=O)N(C)C)o2)cc1` (stereo unspecified) | -10.36 |
| 36 | `CCOCCCNC(=O)c1cccn1Cc1cccnc1` | -4.028 |
| 37 | `C[C@@H](O)[C@H](NC(=O)c1csc2nc(-c3ccccc3F)cn12)C(N)=O` | -36.92 |
| 38 | `Cc1ccc(CN(CCCO)Cc2nc3ccccc3[nH]2)s1` | -11.19 |
| 39 | `NC(=O)NC(=O)CNc1cccc(C(=O)c2ccccc2)c1` | 2.422 |
| 40 | `O=C(CCc1nc(-c2ccccc2)no1)N[C@H]1COC[C@@H]1N1CCCC1` | 62.68 |
| 41 | `O=c1[nH]c(-c2ccccc2F)nc2c1CCNC2` | -46.42 |
| 42 | `CN(C)CCN(Cc1cccc(F)c1)C(=O)c1ccc2nccn2c1` | -26.46 |
| 43 | `O=C(c1cc(CC2(NCC3CCCCC3)COC2)no1)N1CCCCC1` | -8.358 |
| 44 | `CC(C)c1cc(C(=O)N2CCCN(CCCc3ccccc3)CC2)[nH]n1` | -24.11 |
| 45 | `O=S(=O)(NCc1ccnc(-n2ccnc2)c1)c1cncc(F)c1` | -0.5427 |
| 46 | `O=C(CCN1CCCCO1)N1CC[C@H](O)[C@@H](O)C1` | -9.118 |
| 47 | `CC(C)(O)CN1CCC(=O)N(Cc2ccco2)Cc2cc(F)ccc21` | -18.84 |
| 48 | `CCCc1cc(N2CCC(Cc3cccc(C(N)=O)c3)C2)nc(C)n1` (stereo unspecified) | -72.82 |
| 49 | `CCc1cc(NCCN2CCNC2=O)n2nc(C)c(C)c2n1` | -1.942 |
| 50 | `Cc1cc(CN2CCc3nc(C)n(C)c(=O)c3CC2)[nH]n1` | 19.58 |
| 51 | `CCOc1cc(N2CCN(C(=O)c3ccc(OC)cc3)CC2)nc(C)n1` | -42.75 |
| 52 | `c1ccc(N2CCC(NCCc3ccc(-n4cccn4)cc3)CC2)nc1` | -45.32 |
| 53 | `CC(=O)N1CCc2[nH]cnc2C12CCN(C(=O)Cc1cccs1)CC2` | 3.995 |
| 54 | `CC(C)Cc1nc(CNCc2cccc(N3CCCC3=O)c2)no1` | 4.25 |
| 55 | `CC(NC(=O)N1CCCN(C)CC1)c1ccc2c(c1)OCCO2` (stereo unspecified) | -29.1 |
| 56 | `CCCc1cc(C(=O)N[C@H](C)[C@@H](O)c2ccc(O)cc2)n(C)n1` | -18.58 |
| 57 | `COc1cc(CC(=O)Nc2cccc(C(=O)N(C)C)n2)ccc1C` | -21.32 |
| 58 | `Cc1c(C(=O)NCc2ccnc(OCC(F)(F)F)c2)cnn1C` | 6.715 |
| 59 | `CCNC(=O)[C@@H]1CCCN1[C@@H](C(=O)NC)c1ccccc1.Cl` | -6.062 |
| 60 | `COc1cccc(OCC(=O)NCc2ccc3[nH]c(=O)[nH]c3c2)c1` | -38.86 |
| 61 | `O=c1nc(CNc2ccccc2)[nH]n1Cc1ccccc1` | -10.98 |
| 62 | `COC1(CNC(=O)c2ccc(F)c(F)c2)CCSC1` (stereo unspecified) | -22.12 |
| 63 | `[H][C@@]12C[C@@H](O)C[C@]1([H])CN(Cc1ccc(C(C)(C)C)cc1OCC(N)=O)C2` | -6.506 |
| 64 | `CC1(c2ccccc2)CCC(=O)N(CCCN2CCOCC2)C1` (stereo unspecified) | -5.697 |
| 65 | `NC(=O)C1CCN(C(=O)NCc2ccccc2-n2cccn2)C1` (stereo unspecified) | -4.64 |
| 66 | `Cc1nc[nH]c1C(=O)N1CCC2(CC1)CN(CCN(C)C)C(=O)O2` | -26.67 |
| 67 | `Nc1nc2c(c(N3CCC(CCn4cccn4)CC3)n1)CCNCC2` | -19.07 |
| 68 | `Cc1cnn(CC2CCCN2c2ncnc3sccc23)c1` (stereo unspecified) | 8.41 |
| 69 | `CCOCCN1CCN(CC2(O)CCCCC2)CC1` | 5.036 |
| 70 | `O=C(Nc1ccc(-c2ccccc2)cn1)C1CCCN1C(=O)C1CC1` (stereo unspecified) | 6.851 |
| 71 | `CCc1nc(CN2CCCN(C(=O)C3CCOCC3)CC2)cs1` | 5.565 |
| 72 | `CCc1nc(CC(=O)N2CCC(C(=O)N3CCCCC3)CC2)cs1` | 9.255 |
| 73 | `CN(C)CCN(C)C[C@@H]1CN(C(=O)NC2CCCC2)C[C@@H]1CO` | -48.63 |
| 74 | `CC(C)(C)OC(=O)NCC1CCCCN1Cc1cccc(C(N)=O)c1` (stereo unspecified) | 5.481 |
| 75 | `COc1c(CNC2CCC(O)CC2)c(C(C)C)nn1C` (stereo unspecified) | -14.85 |
| 76 | `CC(Cn1cccn1)NC(=O)Nc1cccnc1` (stereo unspecified) | -19.03 |
| 77 | `O=C(O)C(F)(F)F.O=C1COC2(COCCN(c3ccccn3)C2)CN1c1cccc(F)c1` (stereo unspecified) | -28.15 |
| 78 | `O=C(c1ccnc(N2CCOC(C(F)(F)F)C2)c1)N1CCOCC1` (stereo unspecified) | -34.5 |
| 79 | `O=C(O)C(F)(F)F.O=C(O)C(F)(F)F.[H][C@@]12CCN(C(=O)c3cnn(C)c3)[C@@]1([H])CCN2Cc1cccc(C)n1` | -89.93 |
| 80 | `O=S(=O)(Cc1ccccc1)NC[C@H]1Cn2ccnc2CO1` | -50.76 |
| 81 | `CCn1nc(C)c(CCNC(=O)C2CCCN(C(=O)COC)C2)c1C` (stereo unspecified) | -85.94 |
| 82 | `N#Cc1ccnc(N2CCC(c3nccn3Cc3cscn3)CC2)c1` | -141.9 |
| 83 | `CCN(CC1CCOC1)C(=O)c1cc(Cl)c2c(c1)OCO2` (stereo unspecified) | -44.62 |

The first 9 entries again:

{"compound": "[H][C@@]12CCN(C(=O)c3cccnc3OC)C[C@@]1([H])O[C@@H](c1noc(C)n1)C2", "effect": -10.37}
{"compound": "COc1ccccc1CC(=O)N1CCC(NCc2cccnc2)CC1", "effect": -51.59}
{"compound": "OCCNc1nccc(-c2c[nH]nc2-c2cccnc2)n1", "effect": -27.18}
{"compound": "CC(C)CCNC(=O)c1ccc(-n2cnc3ccccc3c2=O)cc1", "effect": -25.52}
{"compound": "CC(=O)NCC1CCN(C(=O)c2c(C)[nH]c3ccc(Cl)cc23)CC1", "effect": 4.898}
{"compound": "CC(C)C(C#N)N1CCN(Cc2nccn2CC(F)(F)F)CC1", "stereo": "stereo unspecified", "effect": -5.86}
{"compound": "Cc1cnn(-c2cncc(C(N)=O)c2)c1", "effect": -17.2}
{"compound": "CC(O)CN1CCC(CN(C)Cc2ccc(C(N)=O)cc2)CC1", "stereo": "stereo unspecified", "effect": -28.08}
{"compound": "Cc1cccc(-c2nc(C)nn2CC(=O)N(C)C2CC2)c1", "effect": 38.46}

Source: ChEMBL document CHEMBL3988442, “University of Dundee, Small-Polar-MMV Screening Library” (2021).